PubChem BioAssay AID1671195 | Yale University | 2021

Test: 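Regulators of LDL receptor activity judged by labelled LDL uptake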 (primary screen)
Cell system: human Huh7 hepatoma cells
Knock-down reagent: siRNA pool against human genes, 18 nM
Time to read-out: about 2 to 2.5 days of knockdown, then 8 h LDL uptake
Challenge: DiI-labelled LDL at 30 µg/ml for 8 h, in lipoprotein-deficient serum medium
Read-out: 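Per-cell DiI-LDL intensity by automated imaging; well means scaled to the plate median and given as a robust z-score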
Reading the numbers: robust z-score: higher = more LDL uptake after knockdown
Call rule: 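a gene counts as active if at least two replicate z-scores exceed ±2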
In all, the deposit lists about 22,000 reagents; below is a random part of them. About 1,510 of them (6.9%) count as active. 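Active includes knockdowns raising or lowering LDL uptake; positive z-scores mean more uptake, negative mean less.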 Unmarked entries are inactive.

OR8G5 (olfactory receptor family 8 subfamily G member 5) showed robust z-score, replicate 1 = -0.292; robust z-score, replicate 2 = -0.354; robust z-score, replicate 3 = -0.0343.
After knock-down of TRAK1 (trafficking kinesin protein 1), the record shows robust z-score, replicate 1 = -0.977; robust z-score, replicate 2 = -1.11; robust z-score, replicate 3 = -1.01.
Silencing of PTPRG (protein tyrosine phosphatase receptor type G) resulted in: robust z-score, replicate 1 = -0.52; robust z-score, replicate 2 = 0.338; robust z-score, replicate 3 = 0.198.
Against CBFA2T3 (CBFA2/RUNX1 partner transcriptional co-repressor 3), the entry reads robust z-score, replicate 1 = -0.961; robust z-score, replicate 2 = -1.07; robust z-score, replicate 3 = -0.544.
Against SH2B1 (SH2B adaptor protein 1) the deposit lists robust z-score, replicate 1 = -0.468; robust z-score, replicate 2 = -1.87; robust z-score, replicate 3 = -0.68.
NFKBID (NFKB inhibitor delta) gave robust z-score, replicate 1 = 0.27; robust z-score, replicate 2 = 0.0151; robust z-score, replicate 3 = -0.186.
BAG5 (BAG cochaperone 5) scored robust z-score, replicate 1 = -0.768; robust z-score, replicate 2 = -0.732; robust z-score, replicate 3 = -0.555.
With knock-down of MIR9-1HG (MIR9-1 host gene), the record shows robust z-score, replicate 1 = 1.02; robust z-score, replicate 2 = 1.74; robust z-score, replicate 3 = 1.23.
RSPO4 (R-spondin 4) gave robust z-score, replicate 1 = -0.313; robust z-score, replicate 2 = -0.865; robust z-score, replicate 3 = -0.863.

A few values from the list.
Under “robust z-score, replicate 3”, SH2B1 (SH2B adaptor protein 1) has -0.68
TRAK1 (trafficking kinesin protein 1), robust z-score, replicate 3 = -1.01

The listing continues:
PRICKLE3 (prickle planar cell polarity protein 3) showed robust z-score, replicate 1 = 2.36 (active); robust z-score, replicate 2 = 2.57; robust z-score, replicate 3 = 1.14.
TK2 (thymidine kinase 2) gave robust z-score, replicate 1 = -1.17; robust z-score, replicate 2 = 3.4; robust z-score, replicate 3 = -0.336.
CCDC93 (CCC complex scaffolding subunit CCDC93) gave robust z-score, replicate 1 = 1.25; robust z-score, replicate 2 = 0.34; robust z-score, replicate 3 = 1.2.
CBR1 (carbonyl reductase 1) gave robust z-score, replicate 1 = 1.85; robust z-score, replicate 2 = 0.786; robust z-score, replicate 3 = 1.42.
With knock-down of MEGF10 (multiple EGF like domains 10), the record shows robust z-score, replicate 1 = -0.512; robust z-score, replicate 2 = -0.823; robust z-score, replicate 3 = 0.489.
LOC387690 (retired record) gave robust z-score, replicate 1 = -1.41; robust z-score, replicate 2 = -1.11; robust z-score, replicate 3 = -1.32.
After knock-down of FBLN2 (fibulin 2), the record shows robust z-score, replicate 1 = 0.685; robust z-score, replicate 2 = -0.356; robust z-score, replicate 3 = -0.0684.
LOC388819 (retired record) showed robust z-score, replicate 1 = 0.608; robust z-score, replicate 2 = 0.944; robust z-score, replicate 3 = 0.748.
Silencing of GPR132 (G protein-coupled receptor 132) gave: robust z-score, replicate 1 = -0.83; robust z-score, replicate 2 = -1.97; robust z-score, replicate 3 = -1.06.
Knock-down of TAF13 (TATA-box binding protein associated factor 13) gave: robust z-score, replicate 1 = 1.11; robust z-score, replicate 2 = 0.724; robust z-score, replicate 3 = 0.576.
Depletion of GIMAP4 (GTPase, IMAP family member 4) resulted in: robust z-score, replicate 1 = -1.84; robust z-score, replicate 2 = -1.16; robust z-score, replicate 3 = -0.0951.
Knock-down of POP4 (POP4 ribonuclease P/MRP subunit) gave: robust z-score, replicate 1 = -1.37; robust z-score, replicate 2 = -0.799; robust z-score, replicate 3 = -0.927.
TP53INP2 (tumor protein p53 inducible nuclear protein 2) showed robust z-score, replicate 1 = -0.697; robust z-score, replicate 2 = -0.945; robust z-score, replicate 3 = -0.377.
PRP4K (pre-mRNA processing factor kinase PRP4K) showed robust z-score, replicate 1 = -1.33; robust z-score, replicate 2 = -1.78; robust z-score, replicate 3 = -1.02.
For BARX1 (BARX homeobox 1), the entry reads robust z-score, replicate 1 = 0.537; robust z-score, replicate 2 = -0.639; robust z-score, replicate 3 = -0.631.
